From PubChem BioAssay AID504840 (Johns Hopkins Ion Channel Center, 2011)
Hit rate of the full screen: of about 1,500 compounds, about 890 (59%) were called active.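 Rule for the calls: active = inhibition of the choline-evoked signal at any tested dose together with a fitted dose-response curve; inactive = no inhibition at any dose or no curve.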 So high a share suggests a set chosen from earlier hits. Only a part is listed here, and it is no random draw. Potency and affinity values are given separately.

Protein sequences, listed by entry. Tags and fused reporters are not part of them. Lines headed by an entry give the natural chain unless they say otherwise; changes in a name come on top.
UniProt Q9GZV3: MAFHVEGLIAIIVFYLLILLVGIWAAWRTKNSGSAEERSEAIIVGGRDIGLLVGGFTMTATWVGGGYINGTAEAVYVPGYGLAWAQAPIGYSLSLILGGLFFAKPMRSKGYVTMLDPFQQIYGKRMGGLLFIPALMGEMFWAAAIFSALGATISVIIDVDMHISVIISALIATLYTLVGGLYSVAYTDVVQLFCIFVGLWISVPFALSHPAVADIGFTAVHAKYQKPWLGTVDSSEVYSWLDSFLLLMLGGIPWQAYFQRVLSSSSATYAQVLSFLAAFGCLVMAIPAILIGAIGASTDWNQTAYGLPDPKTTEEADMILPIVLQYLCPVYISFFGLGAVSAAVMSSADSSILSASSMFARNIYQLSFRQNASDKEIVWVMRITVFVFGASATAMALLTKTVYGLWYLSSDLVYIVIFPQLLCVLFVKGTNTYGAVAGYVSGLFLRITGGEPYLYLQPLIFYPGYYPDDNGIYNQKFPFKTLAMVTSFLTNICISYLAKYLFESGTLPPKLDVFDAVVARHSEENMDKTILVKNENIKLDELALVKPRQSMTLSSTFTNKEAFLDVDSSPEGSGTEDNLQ

target: High affinity choline transporter 1 (Homo sapiens) (UniProt Q9GZV3); experiment: CHT inhibitors, dose response, cell-based, 5-point CRC, membrane potential dye (AID 504840); settings: HEK293-CHT, choline-induced depolarization; at 37 µM (top of the series), CHT with LV-to-AA double alanine mutation unless noted;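 note: 0% = buffer-only response and 100% = EC90 choline response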

Structure (SMILES)	inhibition
COc1c(/C=C2/C(=O)NC(=O)N(C)C2=O)c(CCN(C)C(=O)c2ccccc2)cc2c1OCO2	inactive: 34.3% [at 37 µM]
Cc1ccc2c(c1)C1CN(C)CCC1N2C(=O)CCCN1C(=O)c2cccc3cccc(c23)C1=O (stereo not given)	inactive: 57.6%
Cc1cccc(N2CCc3c2nc2ccccc2c3N)c1	inactive: 52%
COC(=O)C1=C(c2cc3ccccc3o2)C[C@@H]2CC[C@H]1N2C(=O)N1CCCC1	inactive: 63.4%
CC(=O)O[C@@H]1/C=C/[C@](C)(O)C[C@@H](C)C/C=C/[C@H]2[C@@H]3O[C@]3(C)[C@@H](C)[C@H]3[C@H](Cc4ccccc4)NC(=O)[C@@]312	inactive: -6.01%
CCOc1cc(/C=C2/C(=O)NC(=O)N(c3ccc(CC)cc3)C2=O)ccc1OC(=O)c1cccs1	inactive: 56.5% [at 37 µM]
CC[N+](CC)(CC#CCO)CC#Cc1ccccc1	inactive: 67%
c1ccc2c(CN3CCCCCC3)c[nH]c2c1	inactive: 71.8%
O=c1cccc2n1CC1CC2CN(Cc2cccc(Cl)c2Cl)C1 (stereo not given)	inactive: 45.8%
O=C1NC(=O)C(=Cc2coc3ccc(O)cc3c2=O)C(=O)N1	inactive: 38.7% [at 37 µM]
CC(=O)O[C@@]12CO[C@@H]1C[C@@H](O)[C@@]1(C)C(=O)[C@H](O)C3=C(C)[C@@H](OC(=O)[C@H](O)[C@@H](NC(=O)c4ccccc4)c4ccccc4)C[C@@](O)([C@@H](OC(=O)c4ccccc4)C12)C3(C)C (stereo not given in full)	inactive: 23.9%
Cc1ccc2c(c1)C1CN(C)CCC1N2C(=O)Nc1cccc(C(F)(F)F)c1 (stereo not given)	inactive: 48.9%
Cc1cc(/C=C2\C(=O)NC(=O)N(Cc3ccco3)C2=O)c(C)n1-c1ccc(C(=O)O)cc1	inactive: 14% [at 37 µM]
CCNC(=O)C1OC(n2cnc3c(N)ncnc32)C(O)C1O (stereo not given)	inactive: 63.1%
COc1cc(C=C2C(=O)NC(=O)NC2=O)ccc1OS(=O)(=O)c1ccccc1[N+](=O)[O-]	inactive: 42% [at 37 µM]

2 records drawn at random from the list so far, as already listed:
Structure (SMILES)	inhibition
O=c1cccc2n1CC1CC2CN(Cc2cccc(Cl)c2Cl)C1 (stereo not given)	inactive: 45.8%
COc1c(/C=C2/C(=O)NC(=O)N(C)C2=O)c(CCN(C)C(=O)c2ccccc2)cc2c1OCO2	inactive: 34.3% [at 37 µM]
